Experimental findings from PMC11180190 are described below.

Sequences of proteins named here, by UniProt entry; tags and fusion partners are left off.
UniProt P19532: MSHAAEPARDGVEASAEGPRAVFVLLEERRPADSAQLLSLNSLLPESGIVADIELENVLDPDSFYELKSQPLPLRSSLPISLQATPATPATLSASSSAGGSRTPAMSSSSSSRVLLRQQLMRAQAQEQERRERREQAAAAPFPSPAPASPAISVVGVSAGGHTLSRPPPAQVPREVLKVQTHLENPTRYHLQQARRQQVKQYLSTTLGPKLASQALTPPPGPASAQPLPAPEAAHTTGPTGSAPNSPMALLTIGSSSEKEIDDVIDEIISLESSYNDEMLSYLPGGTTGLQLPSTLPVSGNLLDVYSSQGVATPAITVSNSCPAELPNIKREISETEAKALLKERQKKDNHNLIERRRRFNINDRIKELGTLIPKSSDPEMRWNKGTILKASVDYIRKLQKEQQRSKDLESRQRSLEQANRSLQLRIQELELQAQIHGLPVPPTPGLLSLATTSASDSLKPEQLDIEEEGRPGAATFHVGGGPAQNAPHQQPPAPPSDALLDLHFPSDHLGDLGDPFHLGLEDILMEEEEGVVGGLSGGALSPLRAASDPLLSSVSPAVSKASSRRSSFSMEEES
UniProt P49840: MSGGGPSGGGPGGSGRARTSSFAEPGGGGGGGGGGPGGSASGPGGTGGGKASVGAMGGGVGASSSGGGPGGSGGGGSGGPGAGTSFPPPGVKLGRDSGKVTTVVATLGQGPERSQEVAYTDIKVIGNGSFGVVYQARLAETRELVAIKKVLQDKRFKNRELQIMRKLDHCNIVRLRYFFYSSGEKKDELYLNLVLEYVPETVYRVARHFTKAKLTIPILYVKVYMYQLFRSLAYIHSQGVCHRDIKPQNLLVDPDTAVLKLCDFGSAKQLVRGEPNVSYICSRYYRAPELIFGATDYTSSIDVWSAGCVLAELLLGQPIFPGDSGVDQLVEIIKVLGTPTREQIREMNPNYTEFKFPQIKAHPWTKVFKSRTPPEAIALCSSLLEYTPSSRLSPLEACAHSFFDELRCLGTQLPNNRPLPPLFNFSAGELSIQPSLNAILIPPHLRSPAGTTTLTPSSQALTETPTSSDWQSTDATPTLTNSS
UniProt P49841: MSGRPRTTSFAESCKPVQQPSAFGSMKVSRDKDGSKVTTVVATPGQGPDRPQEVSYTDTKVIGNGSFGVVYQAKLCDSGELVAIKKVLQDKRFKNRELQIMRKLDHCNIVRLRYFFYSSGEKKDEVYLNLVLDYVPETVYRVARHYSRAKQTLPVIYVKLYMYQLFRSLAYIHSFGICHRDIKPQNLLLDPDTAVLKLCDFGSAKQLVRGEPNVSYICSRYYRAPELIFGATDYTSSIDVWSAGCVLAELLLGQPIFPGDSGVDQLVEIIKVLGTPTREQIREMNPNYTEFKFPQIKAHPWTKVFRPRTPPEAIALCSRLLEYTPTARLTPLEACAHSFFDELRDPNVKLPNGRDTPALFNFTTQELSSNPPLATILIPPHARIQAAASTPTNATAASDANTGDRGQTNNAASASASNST

No constants are given. Whether binding was seen depends on the method and setting. In cells and extracts the contact can be indirect. Some binding calls cover weakened binding; strength is not graded here.

For the assay, the target named is Flag-tagged TFE3 (transcription factor E3), wild type (UniProt P19532). The experiment in a line: co-IP; HEK293T cells transfected with HA-GSK3α/β and Flag-TFE3 plasmids; NP40 lysate diluted to 1 μg/μL; anti-HA or anti-Flag magnetic beads, 4 °C overnight; western blot.

For “HA-tagged GSK3α (glycogen synthase kinase 3α) (from UniProt P49840 1-483) (enzyme)”, the binding entry is listed as “binds”.

As to “HA-tagged GSK3β (glycogen synthase kinase 3β) (from UniProt P49841 1-420) (enzyme)”, the binding entry is “binds”.
